Results as given in the supplement of paper PMC10849652.
The other results are listed elsewhere or left out. Residues, ends and D or L forms follow the SMILES beside them. *: point of attachment. Cbz = O=C(OCc1ccccc1)*

By UniProt entry, the sequences of proteins in these tests, tags left out. Where a name states a change or a piece, a line headed by the entry shows the natural chain unless it says otherwise.
UniProt O75695: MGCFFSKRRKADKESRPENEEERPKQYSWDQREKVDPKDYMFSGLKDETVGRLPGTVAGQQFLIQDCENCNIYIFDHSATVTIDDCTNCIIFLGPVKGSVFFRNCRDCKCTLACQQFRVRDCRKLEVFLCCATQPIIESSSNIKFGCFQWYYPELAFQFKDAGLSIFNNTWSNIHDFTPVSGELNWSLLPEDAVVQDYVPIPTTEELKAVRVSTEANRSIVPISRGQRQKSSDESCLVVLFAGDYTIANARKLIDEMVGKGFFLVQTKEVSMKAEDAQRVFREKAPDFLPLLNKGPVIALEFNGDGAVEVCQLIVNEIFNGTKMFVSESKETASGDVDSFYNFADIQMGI
UniProt P31350, whole entry, looked up: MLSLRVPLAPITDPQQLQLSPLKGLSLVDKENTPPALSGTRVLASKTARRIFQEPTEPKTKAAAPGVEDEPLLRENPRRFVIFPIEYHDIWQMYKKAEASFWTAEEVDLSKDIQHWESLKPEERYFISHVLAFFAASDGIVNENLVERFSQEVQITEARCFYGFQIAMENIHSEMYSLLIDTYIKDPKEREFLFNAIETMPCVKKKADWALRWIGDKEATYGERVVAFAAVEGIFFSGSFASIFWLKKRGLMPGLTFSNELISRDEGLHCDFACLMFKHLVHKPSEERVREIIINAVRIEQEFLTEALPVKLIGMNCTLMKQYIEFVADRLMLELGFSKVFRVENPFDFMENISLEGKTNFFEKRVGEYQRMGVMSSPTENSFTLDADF
UniProt Q9HB90, whole entry, looked up: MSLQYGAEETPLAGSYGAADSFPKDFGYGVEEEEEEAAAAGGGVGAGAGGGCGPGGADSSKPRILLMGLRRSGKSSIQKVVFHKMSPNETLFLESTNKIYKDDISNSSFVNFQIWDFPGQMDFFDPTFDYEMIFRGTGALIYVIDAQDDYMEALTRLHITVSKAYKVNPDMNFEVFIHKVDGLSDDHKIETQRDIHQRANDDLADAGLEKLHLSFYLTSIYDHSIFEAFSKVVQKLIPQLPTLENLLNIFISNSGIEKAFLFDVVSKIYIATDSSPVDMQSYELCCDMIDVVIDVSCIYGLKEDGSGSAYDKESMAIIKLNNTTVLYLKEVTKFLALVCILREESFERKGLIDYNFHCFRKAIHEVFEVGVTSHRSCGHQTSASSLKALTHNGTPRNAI
UniProt O95059: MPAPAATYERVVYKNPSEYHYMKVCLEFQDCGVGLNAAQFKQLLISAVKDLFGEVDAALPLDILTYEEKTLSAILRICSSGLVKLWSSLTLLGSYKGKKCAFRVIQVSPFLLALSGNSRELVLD
UniProt Q8N5L8: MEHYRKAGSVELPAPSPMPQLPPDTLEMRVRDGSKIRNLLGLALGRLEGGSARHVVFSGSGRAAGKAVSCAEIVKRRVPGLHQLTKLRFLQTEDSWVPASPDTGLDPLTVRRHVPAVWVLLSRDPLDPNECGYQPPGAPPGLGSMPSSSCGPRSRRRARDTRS
UniProt Q5VZM2, whole entry, looked up: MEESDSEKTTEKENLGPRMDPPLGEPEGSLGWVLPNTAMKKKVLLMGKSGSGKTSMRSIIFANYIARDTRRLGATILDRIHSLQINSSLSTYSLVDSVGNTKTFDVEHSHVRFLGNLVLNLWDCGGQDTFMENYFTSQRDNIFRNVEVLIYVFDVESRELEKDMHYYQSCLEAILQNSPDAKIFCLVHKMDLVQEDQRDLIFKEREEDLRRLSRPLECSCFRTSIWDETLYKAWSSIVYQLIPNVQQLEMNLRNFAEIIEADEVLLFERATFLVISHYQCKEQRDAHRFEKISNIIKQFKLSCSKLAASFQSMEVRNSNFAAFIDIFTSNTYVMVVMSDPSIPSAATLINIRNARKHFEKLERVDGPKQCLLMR
UniProt Q9NQG5: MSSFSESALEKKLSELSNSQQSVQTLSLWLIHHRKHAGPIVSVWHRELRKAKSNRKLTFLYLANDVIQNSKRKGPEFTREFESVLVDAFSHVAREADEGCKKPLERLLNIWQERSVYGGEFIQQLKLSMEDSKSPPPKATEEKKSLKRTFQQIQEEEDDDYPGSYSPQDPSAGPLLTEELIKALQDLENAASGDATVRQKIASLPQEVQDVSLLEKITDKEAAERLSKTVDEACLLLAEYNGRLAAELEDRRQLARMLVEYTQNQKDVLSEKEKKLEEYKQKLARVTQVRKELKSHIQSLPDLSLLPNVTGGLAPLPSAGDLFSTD
UniProt Q15287: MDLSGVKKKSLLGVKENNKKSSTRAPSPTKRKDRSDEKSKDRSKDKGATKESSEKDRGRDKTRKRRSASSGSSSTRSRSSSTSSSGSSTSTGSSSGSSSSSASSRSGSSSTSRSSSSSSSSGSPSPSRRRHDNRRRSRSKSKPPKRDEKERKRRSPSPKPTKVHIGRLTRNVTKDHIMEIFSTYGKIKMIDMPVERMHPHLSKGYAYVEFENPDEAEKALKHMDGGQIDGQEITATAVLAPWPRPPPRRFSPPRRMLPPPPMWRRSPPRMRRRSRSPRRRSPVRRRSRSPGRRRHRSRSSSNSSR
UniProt Q8N122, whole entry, looked up: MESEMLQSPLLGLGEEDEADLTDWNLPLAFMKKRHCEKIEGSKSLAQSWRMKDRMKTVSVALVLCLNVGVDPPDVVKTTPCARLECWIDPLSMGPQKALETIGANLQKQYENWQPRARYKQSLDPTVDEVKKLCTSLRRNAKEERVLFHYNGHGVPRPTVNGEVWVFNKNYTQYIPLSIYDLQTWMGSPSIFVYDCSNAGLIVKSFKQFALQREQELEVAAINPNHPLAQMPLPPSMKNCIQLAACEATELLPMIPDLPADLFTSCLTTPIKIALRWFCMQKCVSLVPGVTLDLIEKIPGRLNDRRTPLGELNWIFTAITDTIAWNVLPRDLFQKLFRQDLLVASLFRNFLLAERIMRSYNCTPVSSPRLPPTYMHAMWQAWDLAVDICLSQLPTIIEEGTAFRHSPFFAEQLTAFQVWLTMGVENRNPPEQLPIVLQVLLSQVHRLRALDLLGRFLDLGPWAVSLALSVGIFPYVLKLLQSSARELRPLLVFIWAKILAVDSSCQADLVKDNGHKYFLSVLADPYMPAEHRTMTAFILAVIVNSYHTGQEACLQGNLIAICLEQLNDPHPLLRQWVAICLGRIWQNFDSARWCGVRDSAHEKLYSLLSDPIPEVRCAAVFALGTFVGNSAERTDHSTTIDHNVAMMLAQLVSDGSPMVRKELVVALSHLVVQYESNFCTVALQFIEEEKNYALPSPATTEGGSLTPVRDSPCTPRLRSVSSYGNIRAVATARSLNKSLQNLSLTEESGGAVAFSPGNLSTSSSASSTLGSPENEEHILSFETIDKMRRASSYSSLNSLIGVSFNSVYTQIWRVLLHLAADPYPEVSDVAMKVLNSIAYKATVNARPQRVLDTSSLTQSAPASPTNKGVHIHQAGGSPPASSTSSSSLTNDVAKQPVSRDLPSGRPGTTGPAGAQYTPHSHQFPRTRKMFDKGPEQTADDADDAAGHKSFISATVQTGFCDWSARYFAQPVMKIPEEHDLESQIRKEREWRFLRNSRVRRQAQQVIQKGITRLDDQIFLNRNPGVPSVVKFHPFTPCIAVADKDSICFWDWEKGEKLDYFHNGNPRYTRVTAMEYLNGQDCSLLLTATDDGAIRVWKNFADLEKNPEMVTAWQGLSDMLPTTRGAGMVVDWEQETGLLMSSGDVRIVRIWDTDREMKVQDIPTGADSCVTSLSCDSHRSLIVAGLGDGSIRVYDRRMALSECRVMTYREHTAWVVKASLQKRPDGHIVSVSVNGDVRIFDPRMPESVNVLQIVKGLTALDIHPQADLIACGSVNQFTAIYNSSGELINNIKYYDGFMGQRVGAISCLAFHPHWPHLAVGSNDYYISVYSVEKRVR

Columns and labels:
Test in all cases: log2 fold change, soluble protein after heating vs DMSO (PISA); higher = thermal stabilisation; K562 cells, 10 uM, 30 min; active = over 0.2 and 3.5 SD of the protein, either way, in both replicates (recomputed)
erlotinib = compound: C#Cc1cccc(Nc2ncnc3cc(OCCOC)c(OCCOC)cc23)c1 [erlotinib]
Method in brief: (§1)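 Values are thermal stability changes relative to control samples and are taken from duplicates. They are stated as log2 fold changes. Before quantification by TMTpro 16plex LC-MS/MS with equalised channel sums, K562 cells at 2×10^6 cells/mL were treated with 10 μM compound for 30 min, heated in aliquots for 3 min across 48°C-58°C, pooled, extracted in PBS with 0.5% NP-40 at 4°C, and centrifuged at 21,000xg for 90 min to give the soluble supernatant.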

[1] = compound: C/C(=N\NC(=O)C1=CC(=CC=C1)S(=O)(=O)N2CCOCC2)/C3=C(C=CC(=C3)Cl)O
Method in brief: as §1

[2] = compound: C1=CC(=C(C=C1Cl)C2=NC3=NC=CN=C3C(=N2)NC4=CC=NC=C4)F
Method in brief: as §1

[3] = compound: C1=CC(=CC=C1C2=NC3=C(N2)C=C(C=C3)C(=O)N)OC4=CC=C(C=C4)Cl
Method in brief: as §1

[4] = compound: C1=CC2=C(C=CC(=C2)/C=C\3/C(=O)NC(=NCC4=CC=CS4)S3)N=C1
Method in brief: as §1

[5] = compound: C1=CC2=NC=CN=C2C=C1/C=C/3\C(=O)NC(=O)S3
Method in brief: as §1

[6] = compound: C1=CC=C(C=C1)C2=NC(=C(N2)C3=CC=NC=C3)C4=CC(=C(C=C4)Cl)O
Method in brief: as §1

[7] = compound: C1=CC=C2C(=C1)C3=NNC4=CC=CC(=C43)C2=O
Method in brief: as §1

[8] = compound: C1CCN(C1)C(=O)NC2=CC=CC(=C2)NC3=NC=C(C(=N3)NCCC4=CN=CN4)Br
Method in brief: as §1

[9] = compound: C1CN(CCC1(CC2=CC=C(C=C2)Cl)N)C3=NC=NC4=C3C=CN4
Method in brief: as §1

IRAK-1-4 Inhibitor I = compound: C1COCCN1CCN2C3=CC=CC=C3N=C2NC(=O)C4=CC(=CC=C4)[N+](=O)[O-] [IRAK-1-4 Inhibitor I]
Method in brief: as §1

ibrutinib = compound: C=CC(=O)N1CCC[C@@H](n2nc(-c3ccc(Oc4ccccc4)cc3)c3c(N)ncnc32)C1 [ibrutinib]
Method in brief: as §1

[10] = compound: CC(=O)c1cnc2ccc(-c3cc(Cl)c(O)c(Cl)c3)nc2c1N[C@H]1CC[C@H](CN(C)C)CC1
Method in brief: as §1

ralimetinib = compound: CC(C)(C)Cn1c(N)nc2ccc(-c3[nH]c(C(C)(C)C)nc3-c3ccc(F)cc3)nc21 [ralimetinib]
Method in brief: as §1

[11] = compound: CC(C)(O)CC(=O)NCCn1ccc2ncnc(Nc3ccc(Oc4cccc(C(F)(F)F)c4)c(Cl)c3)c21
Method in brief: as §1

[12] = compound: CC(C)C1=C2N=C(C=C(N2N=C1)NCC3=CC=CC=C3)NCCCCCCN
Method in brief: as §1

[13] = compound: CC(C)C[C@@H](C=O)NC(=O)[C@H](CC(C)C)NC(=O)[C@H](CC(C)C)NC(=O)OCc1ccccc1
Method in brief: as §1

pinometostat = compound: CC(C)N(C[C@H]1O[C@@H](n2cnc3c(N)ncnc32)[C@H](O)[C@@H]1O)[C@H]1C[C@@H](CCc2nc3cc(C(C)(C)C)ccc3[nH]2)C1 [pinometostat]
Method in brief: as §1

[14] = compound: CC1=C(C2=C(C=C1)C(=O)C3=CC=CC=C3N2CCCN)C
Method in brief: as §1

[15] = compound: CC1=C(C(CC(=O)N1)C2=CC=C(C=C2)C(F)(F)F)C(=O)NC3=C(C=C4C(=C3)C=NN4)F
Method in brief: as §1

Measured: log2 fold change

RPS18 (UniProt P62269)
inactive: erlotinib -0.126 | [1] -0.088 | [2] -0.211 | [3] 0.039 | [4] -0.037 | [5] -0.089 | [6] -0.024 | [7] 0 | [8] 0.097 | [9] -0.144 | IRAK-1-4 Inhibitor I -0.099 | ibrutinib 0.053 | [10] 0.052 | ralimetinib 0.055 | [11] 0.06 | [12] -0.043 | [13] 0.054 | pinometostat 0.149
active: [14] -0.531

RPL38 (UniProt P63173)
inactive: erlotinib 0.024 | [1] -0.05 | [2] -0.148 | [3] 0.026 | [4] -0.102 | [5] -0.025 | [6] -0.027 | [7] 0.026 | [8] 0.033 | [9] -0.106 | IRAK-1-4 Inhibitor I 0.014 | ibrutinib 0.01 | [10] 0 | ralimetinib 0.043 | [11] 0.113 | [12] 0 | [13] 0.124 | pinometostat 0.07 | [14] -0.026

RPL8 (UniProt P62917)
inactive: erlotinib -0.595 | [1] -0.514 | [2] -1.06 | [3] 0.051 | [4] -0.456 | [5] -0.026 | [6] -0.165 | [7] 0.06 | [8] 0.084 | [9] -0.375 | IRAK-1-4 Inhibitor I -0.236 | ibrutinib 0.033 | [10] 0.215 | ralimetinib 0.303 | [11] 0.122 | [12] -0.019 | [13] 0.272 | pinometostat 0.576 | [15] 0.078 | [14] -0.942

RP2 (UniProt O75695)
inactive: erlotinib -0.01 | [1] 0.02 | [2] -0.008 | [3] 0.009 | [4] 0.086 | [5] 0.084 | [6] -0.009 | [7] -0.055 | [8] 0 | [9] -0.003 | IRAK-1-4 Inhibitor I 0.034 | ibrutinib -0.006 | [10] 0.074 | ralimetinib -0.041 | [11] -0.033 | [12] -0.032 | [13] 0.062 | pinometostat 0.009 | [15] -0.039 | [14] -0.002

RRM2 isoform 2 (UniProt P31350)
inactive: erlotinib -0.026 | [1] 0.014 | [2] 0.035 | [3] 0.013 | [4] -0.017 | [5] 0.02 | [6] 0.031 | [7] 0.038 | [8] -0.03 | [9] 0.014 | IRAK-1-4 Inhibitor I 0.031 | ibrutinib 0.011 | [10] 0.014 | ralimetinib 0.013 | [11] -0.025 | [12] 0.02 | [13] -0.007 | pinometostat -0.04 | [15] 0.001 | [14] -0.048

RRAGC (UniProt Q9HB90)
inactive: erlotinib 0.014 | [1] 0.03 | [2] 0.047 | [3] -0.007 | [4] 0.019 | [5] 0.013 | [6] -0.051 | [7] -0.02 | [8] 0.014 | [9] 0.052 | IRAK-1-4 Inhibitor I 0.033 | ibrutinib -0.009 | [10] -0.057 | ralimetinib -0.056 | [11] 0.004 | [12] -0.18 | [13] 0.068 | pinometostat -0.008 | [14] 0.034

RPS16 (UniProt P62249)
inactive: erlotinib -0.166 | [1] -0.108 | [2] -0.258 | [3] 0.049 | [4] -0.075 | [5] -0.043 | [6] -0.049 | [7] 0.002 | [8] 0.025 | [9] -0.2 | IRAK-1-4 Inhibitor I -0.137 | ibrutinib 0.036 | [10] 0.054 | ralimetinib 0.032 | [11] 0.011 | [12] -0.02 | [13] 0.035 | pinometostat 0.102
active: [14] -0.6

4 successive records from above, quoted:
RPL38 (UniProt P63173)
inactive: erlotinib 0.024 | [1] -0.05 | [2] -0.148 | [3] 0.026 | [4] -0.102 | [5] -0.025 | [6] -0.027 | [7] 0.026 | [8] 0.033 | [9] -0.106 | IRAK-1-4 Inhibitor I 0.014 | ibrutinib 0.01 | [10] 0 | ralimetinib 0.043 | [11] 0.113 | [12] 0 | [13] 0.124 | pinometostat 0.07 | [14] -0.026

RPL8 (UniProt P62917)
inactive: erlotinib -0.595 | [1] -0.514 | [2] -1.06 | [3] 0.051 | [4] -0.456 | [5] -0.026 | [6] -0.165 | [7] 0.06 | [8] 0.084 | [9] -0.375 | IRAK-1-4 Inhibitor I -0.236 | ibrutinib 0.033 | [10] 0.215 | ralimetinib 0.303 | [11] 0.122 | [12] -0.019 | [13] 0.272 | pinometostat 0.576 | [15] 0.078 | [14] -0.942

RP2 (UniProt O75695)
inactive: erlotinib -0.01 | [1] 0.02 | [2] -0.008 | [3] 0.009 | [4] 0.086 | [5] 0.084 | [6] -0.009 | [7] -0.055 | [8] 0 | [9] -0.003 | IRAK-1-4 Inhibitor I 0.034 | ibrutinib -0.006 | [10] 0.074 | ralimetinib -0.041 | [11] -0.033 | [12] -0.032 | [13] 0.062 | pinometostat 0.009 | [15] -0.039 | [14] -0.002

RRM2 isoform 2 (UniProt P31350)
inactive: erlotinib -0.026 | [1] 0.014 | [2] 0.035 | [3] 0.013 | [4] -0.017 | [5] 0.02 | [6] 0.031 | [7] 0.038 | [8] -0.03 | [9] 0.014 | IRAK-1-4 Inhibitor I 0.031 | ibrutinib 0.011 | [10] 0.014 | ralimetinib 0.013 | [11] -0.025 | [12] 0.02 | [13] -0.007 | pinometostat -0.04 | [15] 0.001 | [14] -0.048

Next part

RPP14 (UniProt O95059)
inactive: erlotinib -0.047 | [1] 0.09 | [2] -0.077 | [3] 0.059 | [4] -0.046 | [5] -0.023 | [6] 0.012 | [7] -0.022 | [8] -0.017 | [9] 0.021 | IRAK-1-4 Inhibitor I -0.035 | ibrutinib 0.073 | [10] -0.021 | ralimetinib 0.009 | [11] 0.051 | [12] -0.021 | [13] 0 | pinometostat 0.021 | [14] -0.04

RPP25L (UniProt Q8N5L8)
inactive: [1] -0.004 | [2] -0.029 | [3] 0.031 | [4] -0.001 | [5] 0.041 | [6] 0.014 | [7] -0.065 | [8] 0.01 | [9] 0.01 | IRAK-1-4 Inhibitor I -0.102 | ibrutinib 0.021 | [10] -0.004 | ralimetinib 0.049 | [11] -0.015 | [12] -0.293 | [13] 0.035 | pinometostat -0.002
active: erlotinib 0.274 | [14] -0.288

RRAGB (UniProt Q5VZM2)
inactive: erlotinib -0.028 | [1] 0.047 | [2] 0.004 | [3] 0.023 | [4] -0.13 | [5] 0 | [6] 0.021 | [7] 0.082 | [8] -0.048 | [9] 0.037 | IRAK-1-4 Inhibitor I 0.034 | ibrutinib 0.029 | [10] 0.08 | ralimetinib 0.002 | [11] -0.012 | [12] -0.162 | [13] 0.011 | pinometostat 0.039 | [14] 0.026

RPS9 (UniProt P46781)
active: [14] -0.585
inactive: erlotinib -0.099 | [1] -0.05 | [2] -0.384 | [3] 0.024 | [4] -0.069 | [5] -0.011 | [6] 0.047 | [7] 0.002 | [8] 0.102 | [9] -0.172 | IRAK-1-4 Inhibitor I -0.1 | ibrutinib -0.025 | [10] 0.108 | ralimetinib 0.125 | [11] 0.047 | [12] -0.025 | [13] 0 | pinometostat 0.206

RPRD1B (UniProt Q9NQG5)
inactive: erlotinib -0.065 | [1] 0.086 | [2] 0.036 | [3] 0.028 | [4] 0.063 | [5] 0.052 | [6] 0.042 | [7] -0.005 | [8] 0.009 | [9] -0.046 | IRAK-1-4 Inhibitor I 0 | ibrutinib -0.021 | [10] -0.017 | ralimetinib 0 | [11] -0.06 | [12] -0.018 | [13] -0.028 | pinometostat -0.038 | [14] 0.104

RPS25 (UniProt P62851)
inactive: erlotinib -0.083 | [1] -0.071 | [2] -0.276 | [3] 0.077 | [4] -0.075 | [5] -0.091 | [6] -0.067 | [7] 0.033 | [8] 0.061 | [9] -0.141 | IRAK-1-4 Inhibitor I -0.08 | ibrutinib 0.01 | [10] 0.069 | ralimetinib 0.073 | [11] 0.033 | [12] -0.028 | [13] 0.054 | pinometostat 0.184
active: [14] -0.533

RPS10 (UniProt P46783)
inactive: erlotinib -0.141 | [1] -0.13 | [2] -0.188 | [3] 0.009 | [4] -0.141 | [5] -0.017 | [6] -0.019 | [7] 0 | [8] 0.057 | [9] -0.098 | IRAK-1-4 Inhibitor I -0.065 | ibrutinib 0.043 | [10] 0.037 | ralimetinib 0.05 | [11] 0.036 | [12] -0.03 | [13] 0.076 | pinometostat 0.097 | [15] 0.037 | [14] -0.41

RNPS1 (UniProt Q15287)
inactive: erlotinib 0.008 | [1] 0.194 | [2] 0.06 | [3] 0.053 | [4] 0.164 | [5] 0.013 | [6] -0.022 | [7] -0.319 | [8] 0.048 | [9] -0.118 | IRAK-1-4 Inhibitor I -0.159 | ibrutinib -0.031 | [10] -0.317 | ralimetinib 0.128 | [11] -0.039 | [12] -0.126 | [13] 0.066 | pinometostat 0.08
active: [14] -0.746

RPTOR (UniProt Q8N122)
inactive: erlotinib -0.034 | [1] 0.075 | [2] 0.036 | [3] -0.037 | [4] 0.039 | [5] 0.003 | [6] -0.038 | [7] -0.031 | [8] -0.042 | [9] -0.027 | IRAK-1-4 Inhibitor I 0 | ibrutinib 0.051 | [10] -0.145 | ralimetinib -0.022 | [11] -0.129 | [12] -0.187 | [13] -0.011 | pinometostat -0.012 | [14] 0.009

RPS23 (UniProt P62266)
inactive: erlotinib -0.343 | [1] -0.203 | [2] -0.573 | [3] 0.061 | [4] -0.083 | [5] -0.047 | [6] -0.062 | [7] 0.002 | [8] 0.093 | [9] -0.25 | IRAK-1-4 Inhibitor I -0.198 | ibrutinib 0.098 | [10] 0.235 | ralimetinib 0.15 | [11] 0 | [12] 0.01 | [13] 0.089 | pinometostat 0.369 | [15] 0.049 | [14] -0.684
